Measurements reported in the supplement of paper PMC10849652.
The other results are listed elsewhere or left out.

Amino acid sequences for entries named in this document (tags omitted). A change or cut given only in a name is not applied to a line headed by its entry.
UniProt Q13425: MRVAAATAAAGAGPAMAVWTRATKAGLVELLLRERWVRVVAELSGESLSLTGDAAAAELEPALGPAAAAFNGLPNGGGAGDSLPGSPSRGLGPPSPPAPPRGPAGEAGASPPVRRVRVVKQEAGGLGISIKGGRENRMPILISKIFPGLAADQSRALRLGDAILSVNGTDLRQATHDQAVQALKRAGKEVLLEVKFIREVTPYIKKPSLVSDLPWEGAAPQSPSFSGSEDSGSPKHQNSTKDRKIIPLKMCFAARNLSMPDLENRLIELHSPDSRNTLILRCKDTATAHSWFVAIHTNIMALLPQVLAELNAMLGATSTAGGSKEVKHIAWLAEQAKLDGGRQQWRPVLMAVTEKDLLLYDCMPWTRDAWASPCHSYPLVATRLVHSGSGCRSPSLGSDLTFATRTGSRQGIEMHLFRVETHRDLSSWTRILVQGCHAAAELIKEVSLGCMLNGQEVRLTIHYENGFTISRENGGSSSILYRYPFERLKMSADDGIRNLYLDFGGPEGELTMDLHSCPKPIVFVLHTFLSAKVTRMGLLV
UniProt Q9Y5W9: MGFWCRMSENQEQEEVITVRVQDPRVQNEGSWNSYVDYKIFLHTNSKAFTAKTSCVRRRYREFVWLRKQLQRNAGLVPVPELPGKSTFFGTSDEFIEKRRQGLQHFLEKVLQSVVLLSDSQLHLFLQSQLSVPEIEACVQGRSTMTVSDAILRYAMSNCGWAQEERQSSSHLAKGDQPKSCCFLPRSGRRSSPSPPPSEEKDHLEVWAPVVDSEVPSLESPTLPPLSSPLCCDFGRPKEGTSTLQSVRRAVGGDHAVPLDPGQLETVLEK
UniProt P09234, whole entry, looked up: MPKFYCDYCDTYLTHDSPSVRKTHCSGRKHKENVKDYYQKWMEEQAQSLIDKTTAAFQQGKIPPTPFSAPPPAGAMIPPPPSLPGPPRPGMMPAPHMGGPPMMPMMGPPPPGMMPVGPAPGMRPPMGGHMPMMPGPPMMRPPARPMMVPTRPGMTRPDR
UniProt Q9UPR3: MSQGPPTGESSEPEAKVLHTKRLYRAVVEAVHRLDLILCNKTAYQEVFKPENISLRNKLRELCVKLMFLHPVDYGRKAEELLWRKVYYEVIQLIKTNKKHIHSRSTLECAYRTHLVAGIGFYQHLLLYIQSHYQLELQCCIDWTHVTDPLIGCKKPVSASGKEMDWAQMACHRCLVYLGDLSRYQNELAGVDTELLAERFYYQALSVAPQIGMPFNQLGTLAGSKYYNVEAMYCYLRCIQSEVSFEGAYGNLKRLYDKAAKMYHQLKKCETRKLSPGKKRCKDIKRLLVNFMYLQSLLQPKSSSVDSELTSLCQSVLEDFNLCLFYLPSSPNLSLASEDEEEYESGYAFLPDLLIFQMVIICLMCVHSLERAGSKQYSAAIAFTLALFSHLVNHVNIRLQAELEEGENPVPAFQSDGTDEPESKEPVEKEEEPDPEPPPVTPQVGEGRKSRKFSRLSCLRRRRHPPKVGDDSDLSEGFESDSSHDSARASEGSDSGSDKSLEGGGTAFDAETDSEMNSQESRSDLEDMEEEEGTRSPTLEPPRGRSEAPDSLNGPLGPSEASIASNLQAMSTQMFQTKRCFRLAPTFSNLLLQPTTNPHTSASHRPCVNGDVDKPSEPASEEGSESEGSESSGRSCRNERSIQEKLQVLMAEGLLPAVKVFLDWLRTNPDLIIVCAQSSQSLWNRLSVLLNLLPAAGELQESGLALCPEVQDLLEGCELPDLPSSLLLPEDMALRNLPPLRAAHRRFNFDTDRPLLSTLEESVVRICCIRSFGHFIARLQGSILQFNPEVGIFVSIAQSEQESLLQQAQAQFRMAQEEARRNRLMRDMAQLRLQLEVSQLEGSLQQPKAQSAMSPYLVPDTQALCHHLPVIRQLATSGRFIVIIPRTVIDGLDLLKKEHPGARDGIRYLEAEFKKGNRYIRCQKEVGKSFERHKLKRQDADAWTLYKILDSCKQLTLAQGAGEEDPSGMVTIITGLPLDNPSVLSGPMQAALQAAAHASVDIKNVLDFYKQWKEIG
UniProt Q96EX1: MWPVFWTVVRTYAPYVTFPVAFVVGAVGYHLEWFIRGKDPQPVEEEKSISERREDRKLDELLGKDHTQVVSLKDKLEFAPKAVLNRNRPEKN
UniProt P09661: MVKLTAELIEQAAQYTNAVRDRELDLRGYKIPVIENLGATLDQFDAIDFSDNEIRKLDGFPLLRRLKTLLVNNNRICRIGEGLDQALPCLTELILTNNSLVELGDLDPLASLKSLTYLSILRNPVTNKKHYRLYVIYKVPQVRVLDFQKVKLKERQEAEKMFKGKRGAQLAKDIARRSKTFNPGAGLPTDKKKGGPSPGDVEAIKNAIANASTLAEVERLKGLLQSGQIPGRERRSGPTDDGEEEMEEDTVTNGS
UniProt P35610: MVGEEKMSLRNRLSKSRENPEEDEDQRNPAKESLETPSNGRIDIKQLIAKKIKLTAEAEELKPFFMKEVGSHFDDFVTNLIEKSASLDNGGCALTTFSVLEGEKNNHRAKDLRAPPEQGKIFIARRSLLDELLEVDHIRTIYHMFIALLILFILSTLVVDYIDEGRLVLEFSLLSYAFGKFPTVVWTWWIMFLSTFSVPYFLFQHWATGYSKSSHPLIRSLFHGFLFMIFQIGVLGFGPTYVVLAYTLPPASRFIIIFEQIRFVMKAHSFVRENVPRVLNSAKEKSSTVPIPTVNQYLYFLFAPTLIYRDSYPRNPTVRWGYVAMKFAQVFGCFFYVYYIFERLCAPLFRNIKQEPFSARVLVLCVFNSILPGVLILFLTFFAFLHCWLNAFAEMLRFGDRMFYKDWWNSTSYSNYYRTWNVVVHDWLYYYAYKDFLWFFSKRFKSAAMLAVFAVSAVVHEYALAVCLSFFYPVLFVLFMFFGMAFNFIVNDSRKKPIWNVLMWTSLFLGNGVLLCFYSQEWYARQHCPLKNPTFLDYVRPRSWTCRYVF
UniProt Q9Y5X2: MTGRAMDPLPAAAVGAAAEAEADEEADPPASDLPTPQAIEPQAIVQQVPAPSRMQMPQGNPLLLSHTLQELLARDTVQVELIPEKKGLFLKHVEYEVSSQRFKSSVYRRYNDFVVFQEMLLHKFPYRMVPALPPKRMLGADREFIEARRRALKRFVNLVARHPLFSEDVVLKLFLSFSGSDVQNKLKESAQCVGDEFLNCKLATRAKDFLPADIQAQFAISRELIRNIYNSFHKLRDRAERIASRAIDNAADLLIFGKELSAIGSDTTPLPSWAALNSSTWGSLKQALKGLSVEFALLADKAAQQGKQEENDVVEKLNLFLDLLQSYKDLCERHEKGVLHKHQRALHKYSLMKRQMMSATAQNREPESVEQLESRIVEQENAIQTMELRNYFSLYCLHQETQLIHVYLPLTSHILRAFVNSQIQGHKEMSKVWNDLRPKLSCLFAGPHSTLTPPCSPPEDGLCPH
UniProt P51532, whole entry, looked up: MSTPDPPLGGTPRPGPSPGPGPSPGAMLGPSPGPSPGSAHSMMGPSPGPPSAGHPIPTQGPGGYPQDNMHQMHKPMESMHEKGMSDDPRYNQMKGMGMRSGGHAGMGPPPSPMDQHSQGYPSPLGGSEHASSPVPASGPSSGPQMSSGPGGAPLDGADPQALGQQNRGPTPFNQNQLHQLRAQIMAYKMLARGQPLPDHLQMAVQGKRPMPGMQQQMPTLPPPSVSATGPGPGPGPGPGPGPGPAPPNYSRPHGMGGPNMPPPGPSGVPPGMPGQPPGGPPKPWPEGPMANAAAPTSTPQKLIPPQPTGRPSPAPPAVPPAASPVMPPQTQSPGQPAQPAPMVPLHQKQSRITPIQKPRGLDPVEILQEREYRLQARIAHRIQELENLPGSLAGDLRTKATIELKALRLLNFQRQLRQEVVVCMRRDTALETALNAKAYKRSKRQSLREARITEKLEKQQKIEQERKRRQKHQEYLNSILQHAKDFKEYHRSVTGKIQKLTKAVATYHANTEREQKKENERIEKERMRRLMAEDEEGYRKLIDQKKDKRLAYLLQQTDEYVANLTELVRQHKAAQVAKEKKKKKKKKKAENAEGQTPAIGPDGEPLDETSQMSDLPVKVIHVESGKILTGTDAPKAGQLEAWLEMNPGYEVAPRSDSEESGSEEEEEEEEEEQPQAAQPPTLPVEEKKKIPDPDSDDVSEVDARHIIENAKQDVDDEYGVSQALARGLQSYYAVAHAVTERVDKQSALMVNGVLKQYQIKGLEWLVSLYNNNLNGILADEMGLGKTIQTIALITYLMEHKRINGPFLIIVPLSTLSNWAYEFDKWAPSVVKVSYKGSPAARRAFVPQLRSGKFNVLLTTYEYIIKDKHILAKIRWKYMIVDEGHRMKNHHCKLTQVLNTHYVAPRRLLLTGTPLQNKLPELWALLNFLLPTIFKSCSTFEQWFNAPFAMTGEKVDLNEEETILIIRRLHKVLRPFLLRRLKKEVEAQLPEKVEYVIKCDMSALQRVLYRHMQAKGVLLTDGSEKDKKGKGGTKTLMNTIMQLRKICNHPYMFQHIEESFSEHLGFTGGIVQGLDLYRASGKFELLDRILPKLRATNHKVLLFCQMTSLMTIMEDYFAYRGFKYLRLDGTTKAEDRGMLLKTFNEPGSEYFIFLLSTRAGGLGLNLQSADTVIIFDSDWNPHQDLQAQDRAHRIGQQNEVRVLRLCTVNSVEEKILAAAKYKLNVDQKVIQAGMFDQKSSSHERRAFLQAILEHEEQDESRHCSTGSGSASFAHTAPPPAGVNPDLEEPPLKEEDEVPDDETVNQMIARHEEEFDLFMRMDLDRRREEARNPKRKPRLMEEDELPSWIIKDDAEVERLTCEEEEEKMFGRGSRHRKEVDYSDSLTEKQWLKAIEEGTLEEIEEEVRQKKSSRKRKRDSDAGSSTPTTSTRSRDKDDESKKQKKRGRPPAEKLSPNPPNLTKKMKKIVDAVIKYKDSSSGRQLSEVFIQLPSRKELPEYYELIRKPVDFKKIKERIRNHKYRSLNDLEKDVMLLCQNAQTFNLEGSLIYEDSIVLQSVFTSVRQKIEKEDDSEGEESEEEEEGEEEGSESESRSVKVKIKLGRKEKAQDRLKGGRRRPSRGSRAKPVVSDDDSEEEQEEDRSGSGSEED
UniProt Q96GM5, whole entry, looked up: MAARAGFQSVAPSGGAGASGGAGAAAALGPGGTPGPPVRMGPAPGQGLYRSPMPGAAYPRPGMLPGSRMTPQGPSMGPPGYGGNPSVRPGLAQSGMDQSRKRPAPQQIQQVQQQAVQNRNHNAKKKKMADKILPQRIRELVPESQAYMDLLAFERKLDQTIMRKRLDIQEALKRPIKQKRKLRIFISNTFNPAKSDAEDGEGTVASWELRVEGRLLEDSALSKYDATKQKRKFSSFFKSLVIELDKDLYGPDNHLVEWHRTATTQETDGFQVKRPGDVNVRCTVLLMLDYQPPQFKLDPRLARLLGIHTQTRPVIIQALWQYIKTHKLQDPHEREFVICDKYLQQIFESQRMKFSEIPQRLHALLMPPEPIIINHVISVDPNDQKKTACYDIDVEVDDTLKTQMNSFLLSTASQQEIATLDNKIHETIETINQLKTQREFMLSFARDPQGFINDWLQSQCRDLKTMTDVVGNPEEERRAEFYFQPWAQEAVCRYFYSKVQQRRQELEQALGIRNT
UniProt P52788: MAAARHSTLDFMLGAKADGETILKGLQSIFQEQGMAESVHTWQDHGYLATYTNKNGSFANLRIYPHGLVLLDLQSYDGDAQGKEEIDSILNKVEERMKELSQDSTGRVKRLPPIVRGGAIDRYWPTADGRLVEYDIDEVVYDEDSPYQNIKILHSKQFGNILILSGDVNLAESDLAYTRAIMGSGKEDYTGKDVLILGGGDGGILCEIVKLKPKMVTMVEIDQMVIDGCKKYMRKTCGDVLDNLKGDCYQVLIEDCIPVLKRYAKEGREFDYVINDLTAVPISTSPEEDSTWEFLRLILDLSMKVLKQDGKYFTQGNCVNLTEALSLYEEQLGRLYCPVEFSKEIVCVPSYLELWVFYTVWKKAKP
UniProt O95295: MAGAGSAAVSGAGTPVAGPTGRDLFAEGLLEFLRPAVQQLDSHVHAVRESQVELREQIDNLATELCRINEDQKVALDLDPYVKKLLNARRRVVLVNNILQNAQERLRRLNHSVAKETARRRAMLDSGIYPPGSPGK
UniProt P08621, whole entry, looked up: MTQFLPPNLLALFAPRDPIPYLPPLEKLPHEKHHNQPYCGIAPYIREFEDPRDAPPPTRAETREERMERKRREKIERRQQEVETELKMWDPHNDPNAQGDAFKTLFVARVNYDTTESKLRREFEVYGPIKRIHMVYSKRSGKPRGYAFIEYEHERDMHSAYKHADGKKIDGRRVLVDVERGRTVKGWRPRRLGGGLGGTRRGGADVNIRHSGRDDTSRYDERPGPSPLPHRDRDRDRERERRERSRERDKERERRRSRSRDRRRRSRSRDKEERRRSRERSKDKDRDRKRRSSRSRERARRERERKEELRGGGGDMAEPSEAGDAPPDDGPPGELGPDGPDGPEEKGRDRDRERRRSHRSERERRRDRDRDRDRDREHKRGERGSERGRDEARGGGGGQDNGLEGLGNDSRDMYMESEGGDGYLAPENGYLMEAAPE
UniProt P62306, whole entry, looked up: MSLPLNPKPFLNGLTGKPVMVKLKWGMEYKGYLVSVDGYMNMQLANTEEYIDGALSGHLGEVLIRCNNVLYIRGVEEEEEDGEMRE

How the values were obtained:
Assay in all cases: log2 fold change, soluble protein after heating vs DMSO (PISA); higher = thermal stabilisation; K562 lysate, 10 uM; active = over 0.2 and 3.5 SD of the protein, either way, in both replicates (recomputed)
[1] = compound: CN1CC[C@H](c2c(O)cc(O)c3c(=O)cc(-c4ccccc4Cl)oc23)[C@H](O)C1 [alvocidib]
Procedure, shortened: (§1)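 Thermal stability, expressed as log-two fold change relative to solvent controls, is given from duplicates. Crude K562 extract in PBS pH 7.4 with 1 mM MgCl2, at 1 mg/mL protein, was treated with 10 μM compound for 30 min and heated in aliquots for 3 min across 48°C-58°C. After pooling, adjustment to 0.5% NP-40 at 4°C and centrifugation at 21,000xg for 90 min, supernatant protein was measured by TMTpro 16plex LC-MS/MS with channel sums equalised.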

[2] = compound: CN1CCc2c(c3ccccc3n2Cc2ccc(C(=O)NO)cc2)C1 [Tubastatin A]
Procedure, shortened: as §1

[3] = compound: CNC(=O)C1=CC=CC=C1NC2=NC(=NC=C2Cl)NC3=C(C=C(C=C3)N4CCOCC4)OC
Procedure, shortened: as §1

[4] = compound: CNC(=O)c1ccc(Nc2ncc(C(F)(F)F)c(NCc3nccnc3N(C)S(C)(=O)=O)n2)cc1 [defactinib]
Procedure, shortened: as §1

[5] = compound: CNc1nc(-c2ccc3c(N)n[nH]c3c2)cc(N2C[C@@H](C(=O)NC3CCCCC3)CC[C@H]2C)n1
Procedure, shortened: as §1

[6] = compound: COC(=O)N[C@@H](C)CNc1nccc(-c2cn(C(C)C)nc2-c2cc(Cl)cc(NS(C)(=O)=O)c2F)n1 [encorafenib]
Procedure, shortened: as §1

[7] = compound: COC(=O)[C@H](CCSC)NC(=O)C1=C(C=C(C=C1)NC[C@H](CS)N)C2=CC=CC=C2
Procedure, shortened: as §1

[8] = compound: COc1cc(Nc2ncc3c(n2)-c2ccc(Cl)cc2C(c2c(F)cccc2OC)=NC3)ccc1C(=O)O [alisertib]
Procedure, shortened: as §1

[9] = compound: COc1cc2nc(-c3cc(F)ccc3O)nc(N[C@@H]3CNC[C@H]3C(C)(C)O)c2cc1OC
Procedure, shortened: as §1

[10] = compound: COc1cc2ncnc(Nc3ccc(F)c(Cl)c3)c2cc1OCCCN1CCOCC1 [gefitinib]
Procedure, shortened: as §1

Measured: log2 fold change

SNRPB2 (UniProt P08579)
inactive: [1] 0.014 | [2] 0.032 | [3] -0.027 | [4] 0.035 | [5] 0.045 | [6] 0.036 | [7] 0.016 | [8] -0.048 | [9] 0.025 | [10] 0.003

SNTB2 (UniProt Q13425)
inactive: [1] -0.02 | [2] -0.113 | [3] 0.018 | [4] 0.007 | [5] 0.017 | [6] 0.052 | [7] 0.113 | [8] -0.013 | [9] 0.014 | [10] -0.037

SORBS1 isoform 8 (UniProt Q9BX66)
inactive: [1] -0.014 | [2] 0.007 | [3] 0.008 | [4] -0.046 | [5] 0.046 | [6] 0 | [7] -0.019 | [8] 0.001 | [9] -0.011 | [10] -0.005

SMC4 (UniProt Q9NTJ3)
inactive: [1] 0.03 | [2] -0.079 | [3] -0.006 | [4] -0.003 | [5] -0.008 | [6] 0.004 | [7] 0.024 | [8] 0.001 | [9] 0 | [10] -0.024

SNX11 (UniProt Q9Y5W9)
inactive: [1] -0.042 | [2] 0.097 | [3] -0.014 | [4] -0.038 | [5] 0.018 | [6] -0.01 | [7] 0.015 | [8] -0.009 | [9] -0.017 | [10] -0.005

SOGA1 isoform 2 (UniProt O94964)
inactive: [1] -0.011 | [2] -0.064 | [3] -0.017 | [4] 0.004 | [5] 0.028 | [6] 0.066 | [7] 0.195 | [8] 0.031 | [10] 0.017

SMIM15 (UniProt Q7Z3B0)
inactive: [1] -0.007 | [2] 0.005 | [3] 0.012 | [4] -0.013 | [5] 0.123 | [6] 0.002 | [7] -0.057 | [8] -0.036 | [9] 0.01 | [10] 0.007

SON isoform 9 (UniProt P18583)
inactive: [1] -0.04 | [2] -0.038 | [3] -0.016 | [4] -0.028 | [5] -0.022 | [6] 0.081 | [7] 0.057 | [8] 0.026 | [9] 0.002 | [10] -0.046

SNRNP48 (UniProt Q6IEG0)
inactive: [1] -0.044 | [2] -0.056 | [3] 0.002 | [4] -0.062 | [5] -0.038 | [6] 0.046 | [7] -0.076 | [8] 0.076 | [9] -0.037 | [10] -0.003

SNRK (UniProt Q9NRH2)
inactive: [1] -0.045 | [2] -0.125 | [3] 0.104 | [4] 0.078 | [5] 0.113 | [6] 0.083 | [7] -0.014 | [8] 0.029 | [9] 0.034 | [10] 0.004

SNRPC (UniProt P09234)
inactive: [1] -0.031 | [2] 0.078 | [3] 0.024 | [4] -0.031 | [5] 0.032 | [6] -0.027 | [7] 0.01 | [8] 0.012 | [9] 0.003 | [10] -0.001

SMG5 (UniProt Q9UPR3)
inactive: [1] 0.086 | [2] -0.075 | [3] 0.014 | [4] 0.04 | [5] -0.037 | [6] 0.067 | [7] 0.058 | [8] 0.04 | [9] 0.004 | [10] 0.028

SMIM12 (UniProt Q96EX1)
inactive: [1] 0.22 | [2] 0.007 | [3] 0.065 | [4] 0.025 | [5] 0.07 | [6] -0.067 | [7] -0.018 | [8] 0.018 | [9] -0.044 | [10] -0.033

SNCA (UniProt P37840)
inactive: [1] -0.094 | [2] 0.172 | [3] 0.028 | [4] -0.019 | [5] 0.269 | [6] -0.026 | [7] 0.204 | [8] -0.021 | [9] 0.117 | [10] 0.089

SNRPA1 (UniProt P09661)
inactive: [1] -0.034 | [2] 0.042 | [3] -0.015 | [4] -0.031 | [5] -0.006 | [6] -0.015 | [7] 0.016 | [8] 0.001 | [9] -0.006 | [10] 0.013

SOAT1 (UniProt P35610)
inactive: [1] -0.033 | [2] 0.086 | [3] 0.036 | [4] -0.022 | [5] -0.002 | [6] 0.065 | [7] 0.123 | [8] -0.014 | [9] -0.076 | [10] 0.047

SNX3 (UniProt O60493)
inactive: [1] -0.001 | [2] -0.024 | [3] -0.021 | [4] 0.021 | [5] -0.089 | [6] 0.005 | [7] -0.103 | [8] 0.008 | [9] -0.027 | [10] -0.006

SNX8 (UniProt Q9Y5X2)
inactive: [1] -0.029 | [2] 0.025 | [3] 0.03 | [4] 0.019 | [5] 0.072 | [6] 0.009 | [7] -0.068 | [8] -0.025 | [9] 0.002 | [10] -0.004

2 entries drawn at random from those above:
SOAT1 (UniProt P35610)
inactive: [1] -0.033 | [2] 0.086 | [3] 0.036 | [4] -0.022 | [5] -0.002 | [6] 0.065 | [7] 0.123 | [8] -0.014 | [9] -0.076 | [10] 0.047

SNX8 (UniProt Q9Y5X2)
inactive: [1] -0.029 | [2] 0.025 | [3] 0.03 | [4] 0.019 | [5] 0.072 | [6] 0.009 | [7] -0.068 | [8] -0.025 | [9] 0.002 | [10] -0.004

Following part.

SMARCAD1 isoform 2 (UniProt Q9H4L7)
inactive: [1] -0.007 | [2] -0.13 | [3] 0.037 | [4] 0.03 | [5] 0.003 | [6] 0.029 | [7] 0.052 | [8] -0.018 | [9] 0.004 | [10] 0.028

SMARCA4 (UniProt P51532)
inactive: [1] 0.004 | [2] -0.078 | [3] -0.007 | [4] 0.002 | [5] -0.003 | [6] 0.021 | [7] 0.056 | [8] 0.019 | [9] -0.002 | [10] -0.001

SMARCD1 (UniProt Q96GM5)
inactive: [1] -0.005 | [2] -0.094 | [3] -0.01 | [4] -0.005 | [5] -0.001 | [6] 0.03 | [7] 0.116 | [8] 0.019 | [9] -0.002 | [10] -0.005

SMS (UniProt P52788)
inactive: [1] 0.018 | [2] -0.009 | [3] -0.006 | [4] -0.015 | [5] -0.006 | [6] -0.003 | [7] 0.028 | [8] 0.003 | [9] 0.006 | [10] -0.021

SNRPB isoform 3 (UniProt P14678)
inactive: [1] -0.014 | [2] 0.005 | [3] 0.01 | [4] 0.008 | [5] 0.012 | [6] 0.002 | [7] -0.001 | [8] -0.013 | [9] 0.033 | [10] 0.009

SNAPIN (UniProt O95295)
inactive: [1] 0.004 | [2] 0.057 | [3] 0.044 | [4] 0.049 | [5] 0.05 | [6] 0.039 | [7] -0.045 | [8] 0.045 | [9] -0.005 | [10] -0.016

SNRNP70 (UniProt P08621)
inactive: [1] -0.006 | [2] 0.011 | [3] -0.024 | [4] -0.006 | [5] 0.02 | [6] 0.026 | [7] -0.016 | [8] -0.016 | [9] 0.011 | [10] -0.013

SNRPF (UniProt P62306)
inactive: [1] -0.119 | [2] -0.028 | [3] -0.02 | [4] 0.014 | [5] -0.034 | [6] 0.021 | [7] 0.014 | [8] -0.03 | [9] 0.022 | [10] 0.084
